Reference: article doi:10.1101/2020.02.01.930412
These are yes or no findings as the source states them, for the method shown. Binding seen in cells or lysates may run through a third protein. Some results given as binding are weak or reduced against the parent protein; the word gives no strength.

By UniProt entry, the sequences of proteins in these tests, tags left out.
UniProt Q8BUN5: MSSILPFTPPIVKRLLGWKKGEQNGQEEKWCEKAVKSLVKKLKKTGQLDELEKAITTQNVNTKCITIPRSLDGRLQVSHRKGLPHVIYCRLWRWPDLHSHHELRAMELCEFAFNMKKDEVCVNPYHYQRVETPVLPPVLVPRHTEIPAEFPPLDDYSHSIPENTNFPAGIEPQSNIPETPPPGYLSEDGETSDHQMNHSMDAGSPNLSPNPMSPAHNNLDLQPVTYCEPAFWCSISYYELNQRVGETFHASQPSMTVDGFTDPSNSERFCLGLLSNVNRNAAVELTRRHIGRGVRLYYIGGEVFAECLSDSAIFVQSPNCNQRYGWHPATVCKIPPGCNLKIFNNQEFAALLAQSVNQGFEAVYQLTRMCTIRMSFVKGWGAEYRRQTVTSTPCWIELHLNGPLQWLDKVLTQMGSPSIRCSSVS

Biological target: T1, Protein phosphatase 1A (mouse (endogenous in NIH-3T3)) (UniProt P49443)
T1 sequence: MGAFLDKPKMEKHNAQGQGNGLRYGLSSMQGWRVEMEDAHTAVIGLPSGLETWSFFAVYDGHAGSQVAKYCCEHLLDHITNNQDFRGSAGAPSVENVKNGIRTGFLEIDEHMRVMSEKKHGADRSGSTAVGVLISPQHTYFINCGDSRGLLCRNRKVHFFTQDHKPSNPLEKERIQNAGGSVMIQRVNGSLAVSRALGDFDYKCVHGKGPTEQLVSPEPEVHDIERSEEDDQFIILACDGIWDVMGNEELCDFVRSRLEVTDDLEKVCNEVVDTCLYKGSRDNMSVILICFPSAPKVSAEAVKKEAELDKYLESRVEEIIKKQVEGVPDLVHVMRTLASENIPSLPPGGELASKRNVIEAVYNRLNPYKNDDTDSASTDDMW
Assay: co-IP

For “Mothers against decapentaplegic homolog 3 (from UniProt Q8BUN5 1-425)”, the binding was “binds”.
